Some of the results follow.
What was measured:
Assay in all cases: log2 fold change, soluble protein after heating vs DMSO (PISA); higher = thermal stabilisation; K562 lysate, 10 uM; active = over 0.2 and 3.5 SD of the protein, either way, in both replicates (recomputed)
ibrutinib = compound: C=CC(=O)N1CCC[C@@H](n2nc(-c3ccc(Oc4ccccc4)cc3)c3c(N)ncnc32)C1 [ibrutinib]
Outline: (§1)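 Pellets of K562 cells were dounce-homogenised in PBS pH 7.4 with 1 mM MgCl2, and the crude extract was held at 1 mg/mL protein for a 30 min treatment with 10 μM compound. Aliquots were heated for 3 min over 48°C-58°C and pooled before NP-40 was added to 0.5% at 4°C. The supernatant from 21,000xg for 90 min was quantified by TMTpro 16plex LC-MS/MS with channel sums equalised. Values are reported from duplicates as log-two fold change in thermal stability relative to solvent controls.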

Protein sequences, listed by entry. Tags and fused reporters are not part of them. Lines headed by an entry give the natural chain unless they say otherwise; changes in a name come on top.
UniProt Q9H0N5: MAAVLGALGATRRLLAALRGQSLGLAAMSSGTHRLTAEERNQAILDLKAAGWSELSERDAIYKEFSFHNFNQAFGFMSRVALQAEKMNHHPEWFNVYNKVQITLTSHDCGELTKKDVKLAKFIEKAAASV
UniProt Q14554: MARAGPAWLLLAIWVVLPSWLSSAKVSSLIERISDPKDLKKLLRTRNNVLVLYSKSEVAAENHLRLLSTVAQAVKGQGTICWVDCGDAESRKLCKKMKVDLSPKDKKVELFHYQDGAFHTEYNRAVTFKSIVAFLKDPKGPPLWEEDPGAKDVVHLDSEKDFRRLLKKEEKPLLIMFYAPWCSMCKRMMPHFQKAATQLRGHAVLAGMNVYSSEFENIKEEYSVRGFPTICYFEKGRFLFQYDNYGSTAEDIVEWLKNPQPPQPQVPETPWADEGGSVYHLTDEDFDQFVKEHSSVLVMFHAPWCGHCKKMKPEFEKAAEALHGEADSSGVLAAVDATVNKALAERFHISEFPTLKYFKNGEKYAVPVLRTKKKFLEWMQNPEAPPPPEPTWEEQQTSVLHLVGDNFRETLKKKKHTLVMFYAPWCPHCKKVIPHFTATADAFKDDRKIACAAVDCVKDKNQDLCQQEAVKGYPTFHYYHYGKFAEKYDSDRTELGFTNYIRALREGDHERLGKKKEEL
UniProt Q32M88: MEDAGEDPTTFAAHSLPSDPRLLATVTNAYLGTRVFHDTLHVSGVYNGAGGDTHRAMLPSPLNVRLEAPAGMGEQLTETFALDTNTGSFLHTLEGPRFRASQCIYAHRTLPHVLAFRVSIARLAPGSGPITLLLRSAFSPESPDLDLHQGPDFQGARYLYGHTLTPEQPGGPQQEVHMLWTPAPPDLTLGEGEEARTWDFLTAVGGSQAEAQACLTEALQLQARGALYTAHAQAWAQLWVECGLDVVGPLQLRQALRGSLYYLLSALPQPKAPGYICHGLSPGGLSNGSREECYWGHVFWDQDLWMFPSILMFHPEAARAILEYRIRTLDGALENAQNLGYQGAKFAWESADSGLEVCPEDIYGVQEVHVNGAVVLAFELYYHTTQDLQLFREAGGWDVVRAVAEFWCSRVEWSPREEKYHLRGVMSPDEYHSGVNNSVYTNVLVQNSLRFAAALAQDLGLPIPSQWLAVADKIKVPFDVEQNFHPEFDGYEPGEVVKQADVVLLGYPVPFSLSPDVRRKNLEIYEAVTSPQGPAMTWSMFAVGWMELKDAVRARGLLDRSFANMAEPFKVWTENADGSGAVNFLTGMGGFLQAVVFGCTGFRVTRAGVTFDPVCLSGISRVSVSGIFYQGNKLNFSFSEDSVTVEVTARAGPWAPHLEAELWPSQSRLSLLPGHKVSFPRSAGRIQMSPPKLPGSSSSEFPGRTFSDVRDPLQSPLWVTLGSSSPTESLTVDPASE
UniProt Q8N0Y7: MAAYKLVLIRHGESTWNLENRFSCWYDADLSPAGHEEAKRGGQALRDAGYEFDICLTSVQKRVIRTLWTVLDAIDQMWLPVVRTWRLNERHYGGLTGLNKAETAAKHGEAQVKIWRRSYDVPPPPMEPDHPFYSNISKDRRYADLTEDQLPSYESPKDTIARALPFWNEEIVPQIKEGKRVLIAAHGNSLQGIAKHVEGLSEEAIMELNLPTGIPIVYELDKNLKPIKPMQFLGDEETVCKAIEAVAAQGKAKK
UniProt Q13442: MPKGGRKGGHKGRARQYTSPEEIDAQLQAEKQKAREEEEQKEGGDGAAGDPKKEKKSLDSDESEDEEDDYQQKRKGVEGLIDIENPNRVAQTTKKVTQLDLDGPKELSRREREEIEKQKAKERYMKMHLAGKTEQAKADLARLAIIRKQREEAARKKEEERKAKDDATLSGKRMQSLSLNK
UniProt Q5JVF3: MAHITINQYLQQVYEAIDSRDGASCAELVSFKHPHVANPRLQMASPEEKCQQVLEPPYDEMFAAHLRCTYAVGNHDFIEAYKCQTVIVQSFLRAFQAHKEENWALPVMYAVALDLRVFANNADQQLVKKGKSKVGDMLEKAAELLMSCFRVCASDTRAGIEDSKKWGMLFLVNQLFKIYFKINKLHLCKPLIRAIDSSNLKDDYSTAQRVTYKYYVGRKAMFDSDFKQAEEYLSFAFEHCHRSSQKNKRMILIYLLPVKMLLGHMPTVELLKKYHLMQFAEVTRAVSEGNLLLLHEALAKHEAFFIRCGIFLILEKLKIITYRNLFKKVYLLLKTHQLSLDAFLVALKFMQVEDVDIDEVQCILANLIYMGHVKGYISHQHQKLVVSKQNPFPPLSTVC
UniProt Q5T2R2: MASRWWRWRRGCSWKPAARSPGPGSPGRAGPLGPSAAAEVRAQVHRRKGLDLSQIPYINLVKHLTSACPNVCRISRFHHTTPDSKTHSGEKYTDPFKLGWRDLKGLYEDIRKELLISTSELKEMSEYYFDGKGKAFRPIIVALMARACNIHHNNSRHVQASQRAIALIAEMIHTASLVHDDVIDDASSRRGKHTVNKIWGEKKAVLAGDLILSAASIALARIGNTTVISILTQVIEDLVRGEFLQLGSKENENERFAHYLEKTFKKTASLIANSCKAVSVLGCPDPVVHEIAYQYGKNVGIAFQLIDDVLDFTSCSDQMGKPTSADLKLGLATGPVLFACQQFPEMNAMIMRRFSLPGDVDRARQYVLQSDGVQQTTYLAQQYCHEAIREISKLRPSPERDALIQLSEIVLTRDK
UniProt Q9NTI5: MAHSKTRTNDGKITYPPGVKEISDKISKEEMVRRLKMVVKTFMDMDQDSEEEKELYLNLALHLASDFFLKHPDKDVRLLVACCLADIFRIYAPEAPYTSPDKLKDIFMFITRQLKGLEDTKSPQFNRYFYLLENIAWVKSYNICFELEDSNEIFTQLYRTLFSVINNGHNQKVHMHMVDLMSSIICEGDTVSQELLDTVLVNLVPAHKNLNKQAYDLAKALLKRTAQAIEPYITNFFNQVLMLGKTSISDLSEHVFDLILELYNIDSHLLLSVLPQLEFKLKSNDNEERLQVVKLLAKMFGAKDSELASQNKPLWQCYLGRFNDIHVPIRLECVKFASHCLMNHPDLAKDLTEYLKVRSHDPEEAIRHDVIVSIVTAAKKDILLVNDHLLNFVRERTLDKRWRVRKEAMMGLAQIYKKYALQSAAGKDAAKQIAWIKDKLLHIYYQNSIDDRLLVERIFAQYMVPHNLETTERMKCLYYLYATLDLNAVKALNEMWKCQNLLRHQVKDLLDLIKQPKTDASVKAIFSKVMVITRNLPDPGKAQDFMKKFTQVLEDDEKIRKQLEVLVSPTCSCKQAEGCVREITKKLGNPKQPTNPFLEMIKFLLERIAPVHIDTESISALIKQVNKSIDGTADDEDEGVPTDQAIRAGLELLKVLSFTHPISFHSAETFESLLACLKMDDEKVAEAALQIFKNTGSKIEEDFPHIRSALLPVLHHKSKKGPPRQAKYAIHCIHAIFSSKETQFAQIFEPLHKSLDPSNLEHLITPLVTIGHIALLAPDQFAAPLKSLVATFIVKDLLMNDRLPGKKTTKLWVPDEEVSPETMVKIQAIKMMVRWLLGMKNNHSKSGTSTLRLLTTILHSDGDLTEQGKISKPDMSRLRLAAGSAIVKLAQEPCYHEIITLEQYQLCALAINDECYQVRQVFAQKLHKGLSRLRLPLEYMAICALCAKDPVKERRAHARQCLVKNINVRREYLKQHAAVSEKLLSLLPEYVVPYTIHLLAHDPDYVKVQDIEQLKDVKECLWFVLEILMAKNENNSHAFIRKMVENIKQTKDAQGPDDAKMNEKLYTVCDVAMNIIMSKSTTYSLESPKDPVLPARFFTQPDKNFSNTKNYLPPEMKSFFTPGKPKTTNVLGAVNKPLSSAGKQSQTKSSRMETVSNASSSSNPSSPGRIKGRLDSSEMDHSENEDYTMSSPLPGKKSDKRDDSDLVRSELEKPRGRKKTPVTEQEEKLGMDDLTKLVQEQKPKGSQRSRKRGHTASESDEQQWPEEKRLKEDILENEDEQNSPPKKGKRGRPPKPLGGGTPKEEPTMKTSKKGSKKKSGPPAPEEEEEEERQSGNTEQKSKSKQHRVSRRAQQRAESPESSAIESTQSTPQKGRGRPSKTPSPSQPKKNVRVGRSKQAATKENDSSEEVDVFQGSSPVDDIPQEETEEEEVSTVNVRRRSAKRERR
UniProt P35227: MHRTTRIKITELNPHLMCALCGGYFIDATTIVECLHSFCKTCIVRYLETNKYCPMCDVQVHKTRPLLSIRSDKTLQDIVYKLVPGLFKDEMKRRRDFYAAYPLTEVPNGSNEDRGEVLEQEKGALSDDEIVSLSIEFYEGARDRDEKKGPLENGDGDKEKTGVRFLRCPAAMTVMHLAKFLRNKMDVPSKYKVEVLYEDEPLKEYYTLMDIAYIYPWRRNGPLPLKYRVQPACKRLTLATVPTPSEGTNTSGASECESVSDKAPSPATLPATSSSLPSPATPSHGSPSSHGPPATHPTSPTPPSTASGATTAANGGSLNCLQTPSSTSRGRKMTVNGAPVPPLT
UniProt Q460N5, whole entry, looked up: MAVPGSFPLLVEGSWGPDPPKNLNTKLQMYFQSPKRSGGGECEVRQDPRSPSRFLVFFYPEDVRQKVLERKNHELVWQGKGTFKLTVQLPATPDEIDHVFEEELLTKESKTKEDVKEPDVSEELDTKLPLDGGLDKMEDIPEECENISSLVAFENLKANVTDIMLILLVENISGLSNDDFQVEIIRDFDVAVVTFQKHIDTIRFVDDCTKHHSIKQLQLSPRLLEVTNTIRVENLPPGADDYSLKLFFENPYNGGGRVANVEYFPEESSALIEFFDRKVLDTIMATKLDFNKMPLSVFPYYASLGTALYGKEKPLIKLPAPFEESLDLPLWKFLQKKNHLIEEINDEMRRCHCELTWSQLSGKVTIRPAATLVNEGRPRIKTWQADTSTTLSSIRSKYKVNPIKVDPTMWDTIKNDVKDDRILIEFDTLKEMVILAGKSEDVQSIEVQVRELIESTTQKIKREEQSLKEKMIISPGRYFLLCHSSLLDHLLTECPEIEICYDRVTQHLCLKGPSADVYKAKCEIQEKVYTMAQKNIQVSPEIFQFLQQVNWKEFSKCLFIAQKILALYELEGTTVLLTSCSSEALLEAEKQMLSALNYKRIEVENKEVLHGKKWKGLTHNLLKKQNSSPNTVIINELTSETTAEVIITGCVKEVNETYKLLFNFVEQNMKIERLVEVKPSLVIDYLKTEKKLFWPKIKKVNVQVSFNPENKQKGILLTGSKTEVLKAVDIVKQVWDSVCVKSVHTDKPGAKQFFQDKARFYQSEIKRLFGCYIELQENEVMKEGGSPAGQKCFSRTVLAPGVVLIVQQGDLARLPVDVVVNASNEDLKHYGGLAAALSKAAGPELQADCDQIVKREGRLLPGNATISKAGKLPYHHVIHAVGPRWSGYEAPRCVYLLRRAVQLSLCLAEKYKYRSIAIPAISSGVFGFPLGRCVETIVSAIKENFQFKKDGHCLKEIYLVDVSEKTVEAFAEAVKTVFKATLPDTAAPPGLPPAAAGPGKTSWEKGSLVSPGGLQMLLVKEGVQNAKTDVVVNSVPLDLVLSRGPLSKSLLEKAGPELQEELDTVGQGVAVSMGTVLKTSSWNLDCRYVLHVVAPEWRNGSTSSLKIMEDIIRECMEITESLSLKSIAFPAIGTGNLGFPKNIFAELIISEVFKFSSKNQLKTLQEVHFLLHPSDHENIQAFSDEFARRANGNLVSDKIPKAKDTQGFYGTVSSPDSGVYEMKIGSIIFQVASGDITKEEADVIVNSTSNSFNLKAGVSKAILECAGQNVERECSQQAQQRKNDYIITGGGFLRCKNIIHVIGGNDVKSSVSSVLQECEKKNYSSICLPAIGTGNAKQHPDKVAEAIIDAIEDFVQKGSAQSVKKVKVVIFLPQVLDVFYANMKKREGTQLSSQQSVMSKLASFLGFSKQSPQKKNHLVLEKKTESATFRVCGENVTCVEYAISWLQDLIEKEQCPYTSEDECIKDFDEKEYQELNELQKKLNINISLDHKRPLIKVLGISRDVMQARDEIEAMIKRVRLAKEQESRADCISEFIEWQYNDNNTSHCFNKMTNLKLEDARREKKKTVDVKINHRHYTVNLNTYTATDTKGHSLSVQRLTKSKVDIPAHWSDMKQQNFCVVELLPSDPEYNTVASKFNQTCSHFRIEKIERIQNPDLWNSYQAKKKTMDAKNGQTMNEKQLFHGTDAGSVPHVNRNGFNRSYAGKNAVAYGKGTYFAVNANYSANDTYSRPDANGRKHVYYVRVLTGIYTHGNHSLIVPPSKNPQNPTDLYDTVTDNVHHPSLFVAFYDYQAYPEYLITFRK
UniProt Q9Y5Y5: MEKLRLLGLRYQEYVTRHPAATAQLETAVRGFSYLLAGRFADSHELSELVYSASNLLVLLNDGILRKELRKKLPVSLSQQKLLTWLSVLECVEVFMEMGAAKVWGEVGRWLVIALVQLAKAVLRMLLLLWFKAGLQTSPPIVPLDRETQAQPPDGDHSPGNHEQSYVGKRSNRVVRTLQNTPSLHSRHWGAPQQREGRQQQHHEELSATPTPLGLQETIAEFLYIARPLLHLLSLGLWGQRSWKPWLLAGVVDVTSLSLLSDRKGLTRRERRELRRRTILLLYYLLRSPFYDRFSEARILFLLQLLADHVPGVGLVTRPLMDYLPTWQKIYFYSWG

[1] = compound: CC(=O)c1cnc2ccc(-c3cc(Cl)c(O)c(Cl)c3)nc2c1N[C@H]1CC[C@H](CN(C)C)CC1
Outline: as §1

ralimetinib = compound: CC(C)(C)Cn1c(N)nc2ccc(-c3[nH]c(C(C)(C)C)nc3-c3ccc(F)cc3)nc21 [ralimetinib]
Outline: as §1

[2] = compound: CC(C)(O)CC(=O)NCCn1ccc2ncnc(Nc3ccc(Oc4cccc(C(F)(F)F)c4)c(Cl)c3)c21
Outline: as §1

[3] = compound: CC(C)C1=C2N=C(C=C(N2N=C1)NCC3=CC=CC=C3)NCCCCCCN
Outline: as §1

[4] = compound: CC1=C(C(CC(=O)N1)C2=CC=C(C=C2)C(F)(F)F)C(=O)NC3=C(C=C4C(=C3)C=NN4)F
Outline: as §1

[5] = compound: CC1=C(C2=C(C=C1)C(=O)C3=CC=CC=C3N2CCCN)C
Outline: as §1

[6] = compound: CC1=C(C=C(C=C1)NC(=O)C2=CC(=CC=C2)C(C)(C)C#N)NC3=CC4=C(C=C3)N=CN(C4=O)C
Outline: as §1

[7] = compound: CC1=C(C=C(C=C1)NC(=O)C2=CC(=CC=C2)N(C)C)NC(=O)C3=CC=C(C=C3)O
Outline: as §1

[8] = compound: CC1=CC=C(C=C1)SC2=C3C=C(SC3=CN=C2)C(=O)N
Outline: as §1

Measured: log2 fold change

PAXBP1 (UniProt Q9Y5B6)
inactive: ibrutinib -0.004 | [1] 0.019 | ralimetinib 0.027 | [2] -0.015 | [3] 0.006 | [4] -0.024 | [5] 0.007 | [6] -0.007 | [7] 0.077 | [8] 0.032

PCBD2 (UniProt Q9H0N5)
inactive: ibrutinib 0.035 | [1] 0.02 | ralimetinib 0.051 | [2] -0.08 | [3] 0.033 | [4] 0.025 | [5] 0.022 | [6] 0.027 | [7] -0.007 | [8] -0.03

PDIA5 (UniProt Q14554)
inactive: ibrutinib 0.014 | [1] -0.045 | ralimetinib 0.005 | [2] -0.04 | [3] 0.003 | [4] 0.009 | [5] -0.021 | [6] -0.012 | [7] 0.001 | [8] -0.005

PDLIM5 (UniProt Q96HC4)
inactive: ibrutinib 0.033 | [1] -0.003 | ralimetinib 0.009 | [2] -0.027 | [3] -0.006 | [4] -0.008 | [5] 0.002 | [6] 0.022 | [7] -0.019 | [8] -0.027

PDLIM7 (UniProt Q9NR12)
inactive: ibrutinib 0.039 | [1] -0.004 | ralimetinib -0.02 | [2] -0.014 | [3] 0 | [4] -0.006 | [5] -0.008 | [6] 0.069 | [7] -0.019 | [8] -0.007

PDPR (UniProt Q8NCN5)
inactive: ibrutinib 0.024 | [1] -0.011 | ralimetinib -0.049 | [2] -0.018 | [3] 0.093 | [4] -0.004 | [5] 0.009 | [6] 0.003 | [7] 0.003 | [8] -0.006

PEX13 (UniProt Q92968)
inactive: ibrutinib 0.049 | [1] -0.046 | ralimetinib -0.028 | [2] -0.103 | [3] -0.147 | [4] 0.061 | [5] -0.034 | [6] -0.02 | [7] -0.047 | [8] -0.029

PDE4DIP isoform 4 (UniProt Q5VU43)
inactive: ibrutinib 0.249 | [1] -0.021 | ralimetinib 0.02 | [2] -0.03 | [3] -0.061 | [4] -0.032 | [5] 0.006 | [6] 0.054 | [7] -0.033 | [8] 0.017

PAXX (UniProt Q9BUH6)
inactive: ibrutinib 0.002 | [1] 0.031 | ralimetinib -0.036 | [2] 0.015 | [3] -0.004 | [4] -0.027 | [5] -0.036 | [6] 0.034 | [7] 0.048 | [8] -0.035

PGAM1 (UniProt P18669)
inactive: ibrutinib 0.021 | [1] -0.003 | ralimetinib 0.003 | [2] 0.003 | [3] -0.012 | [4] 0.029 | [5] -0.028 | [6] 0.029 | [7] -0.03 | [8] -0.034

PDHB (UniProt P11177)
inactive: ibrutinib -0.018 | [1] 0.042 | ralimetinib -0.034 | [2] -0.033 | [3] 0.022 | [4] -0.019 | [5] -0.003 | [6] 0.036 | [7] 0.003 | [8] -0.005

PGGHG (UniProt Q32M88)
inactive: ibrutinib 0.035 | [1] 0 | ralimetinib 0.017 | [2] -0.032 | [3] -0.024 | [4] 0.059 | [5] -0.026 | [6] 0.023 | [7] -0.038 | [8] -0.008

PDCD2L (UniProt Q9BRP1)
inactive: ibrutinib 0.005 | [1] -0.033 | ralimetinib 0.028 | [2] -0.031 | [3] -0.021 | [4] -0.026 | [5] -0.024 | [6] 0.036 | [7] 0.01 | [8] -0.01

PELP1 (UniProt Q8IZL8)
inactive: ibrutinib 0.016 | [1] 0.027 | ralimetinib 0.039 | [2] 0.004 | [3] -0.099 | [4] 0.041 | [5] -0.046 | [6] 0.016 | [7] 0.029 | [8] -0.013

PGD (UniProt P52209)
inactive: ibrutinib -0.011 | [1] -0.003 | ralimetinib -0.017 | [2] 0.007 | [3] 0.001 | [4] -0.009 | [5] 0.015 | [6] -0.008 | [7] 0.006 | [8] 0.007

PGAM4 (UniProt Q8N0Y7)
inactive: ibrutinib -0.029 | [1] 0.005 | ralimetinib 0.001 | [2] -0.014 | [3] 0.013 | [4] -0.03 | [5] 0.004 | [6] 0.016 | [7] -0.01 | [8] 0.012

Quoted from the listing (two entries):
PGD (UniProt P52209)
inactive: ibrutinib -0.011 | [1] -0.003 | ralimetinib -0.017 | [2] 0.007 | [3] 0.001 | [4] -0.009 | [5] 0.015 | [6] -0.008 | [7] 0.006 | [8] 0.007

PGAM4 (UniProt Q8N0Y7)
inactive: ibrutinib -0.029 | [1] 0.005 | ralimetinib 0.001 | [2] -0.014 | [3] 0.013 | [4] -0.03 | [5] 0.004 | [6] 0.016 | [7] -0.01 | [8] 0.012

Later entries:

PDAP1 (UniProt Q13442)
inactive: ibrutinib -0.042 | [1] -0.012 | ralimetinib -0.002 | [2] -0.065 | [3] 0.011 | [4] -0.046 | [5] 0.043 | [6] -0.015 | [7] -0.02 | [8] -0.008

PDE2A (UniProt O00408)
inactive: ibrutinib -0.008 | [1] -0.148 | ralimetinib -0.202 | [2] -0.107 | [3] -0.045 | [4] -0.018 | [5] 0.025 | [6] -0.038 | [7] 0.01 | [8] -0.11

PCNT (UniProt O95613)
inactive: ibrutinib -0.014 | [1] -0.014 | ralimetinib 0.018 | [2] -0.039 | [3] 0.027 | [4] -0.003 | [5] -0.014 | [6] 0.014 | [7] 0.021 | [8] -0.046

PDCD11 (UniProt Q14690)
inactive: ibrutinib 0.035 | [1] -0.012 | ralimetinib 0.02 | [2] -0.055 | [3] -0.022 | [4] 0.013 | [5] -0.006 | [6] -0.009 | [7] 0.06 | [8] 0.008

PCM1 (UniProt Q15154)
inactive: ibrutinib 0.01 | [1] 0.008 | ralimetinib -0.024 | [2] -0.046 | [3] 0.021 | [4] 0.001 | [5] -0.002 | [6] 0.035 | [7] 0.019 | [8] -0.015

PCBP2 (UniProt H3BRU6)
inactive: ibrutinib 0.046 | [1] 0.016 | ralimetinib 0.031 | [2] -0.018 | [3] -0.036 | [4] -0.055 | [5] 0.001 | [6] 0.141 | [7] 0.039 | [8] -0.031

PCID2 (UniProt Q5JVF3)
inactive: ibrutinib 0.041 | [1] 0.023 | ralimetinib 0.03 | [2] -0.069 | [3] 0.024 | [4] 0.052 | [5] 0.013 | [6] -0.023 | [7] -0.003 | [8] -0.002

PDSS1 (UniProt Q5T2R2)
inactive: ibrutinib 0.065 | [1] -0.07 | ralimetinib 0.012 | [2] 0.038 | [3] 0.009 | [4] -0.029 | [5] 0.068 | [6] -0.061 | [7] 0.038 | [8] -0.068

PDS5B (UniProt Q9NTI5)
inactive: ibrutinib 0.015 | [1] 0.02 | ralimetinib 0.023 | [2] -0.049 | [3] 0.013 | [4] -0.003 | [5] 0.006 | [6] -0.025 | [7] 0.001 | [8] 0.014

PCGF2 (UniProt P35227)
inactive: ibrutinib 0.028 | [1] -0.045 | ralimetinib -0.028 | [2] -0.002 | [3] -0.077 | [4] 0.033 | [5] -0.048 | [6] 0.012 | [7] 0.071 | [8] 0.014

PFKL isoform 2 (UniProt P17858)
inactive: ibrutinib 0.006 | [1] 0.007 | ralimetinib -0.002 | [2] -0.052 | [3] 0.007 | [4] 0.003 | [5] -0.02 | [6] -0.018 | [7] -0.004 | [8] 0.174

PARP14 (UniProt Q460N5)
inactive: ibrutinib 0.029 | [1] -0.051 | ralimetinib -0.03 | [2] 0.015 | [3] 0.074 | [4] 0.049 | [5] 0.011 | [6] -0.007 | [7] 0.002 | [8] -0.135

PDCD6IP isoform 2 (UniProt Q8WUM4)
inactive: ibrutinib -0.035 | [1] 0.009 | ralimetinib 0.003 | [2] 0.025 | [3] 0.013 | [4] -0.006 | [5] 0.046 | [6] -0.013 | [7] 0.029 | [8] 0.016

PEX16 isoform 2 (UniProt Q9Y5Y5)
inactive: ibrutinib 0.02 | [1] -0.028 | ralimetinib 0.025 | [2] -0.06 | [3] -0.033 | [4] 0.074 | [5] -0.012 | [6] -0.07 | [7] 0.03 | [8] 0.016

Source: the supplement of paper PMC10849652
